These results are taken from article PMC7819943, “Rice protein-binding microarrays: a tool to detect cis-acting elements near promoter regions in rice”.

By UniProt entry, the sequences of proteins in these tests, tags left out.
UniProt Q0JBA9, entry or part of it: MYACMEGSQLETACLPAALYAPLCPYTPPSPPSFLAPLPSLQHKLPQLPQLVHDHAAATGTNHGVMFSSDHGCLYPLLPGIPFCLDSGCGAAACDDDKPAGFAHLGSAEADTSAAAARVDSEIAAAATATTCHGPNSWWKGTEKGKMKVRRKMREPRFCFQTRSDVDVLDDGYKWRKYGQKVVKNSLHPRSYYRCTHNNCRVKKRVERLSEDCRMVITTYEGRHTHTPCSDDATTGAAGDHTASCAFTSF

The list shows a part of the results.

For the experiment, the target named is OsWRKY34 (Oryza sativa, UniProt Q0JBA9 1-250). Briefly: protein-binding microarray (RPBM); PBS, 2% BSA, 51.3 ng/ul salmon testes DNA, 50 uM zinc acetate, 200 nM TF, 25 C, 1 h; high values mean tight binding. The settings on record: protein: recombinant; tags: N-terminal polyhistidine and DsRed monomer fusion (pET32a); label: CyDye5-dUTP incorporated in the synthesized complementary strand; 3' TTTTT single-stranded linker to array surface; dsDNA, one strand shown. A digest of the protocol:
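Binding signal is defined as the fluorescence intensity of each feature in arbitrary units, read on an Axon 4000B scanner. Transcription factors with N-terminal polyhistidine and DsRed fusions came from E. coli BL21-CodonPlus and were purified on Ni–NTA. They were incubated at 200 nM for 1 h at 25 °C on a custom Agilent array that had been made double-stranded with Cy5-dUTP, with 50 µM zinc acetate present, and the array was washed.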
“TTCAAAATGTTTGACACCGTTGACTTTTTAACACATGATCCGGAGTCACCTAGTGCAG”: the binding signal is 32400 fluorescence intensity (a.u.).

For “TGGCGCCCCACCACACCACCTCACTGGTTCACTTCACTCACGGAGTCACCTAGTGCAG”, the binding signal is 9660 fluorescence intensity (a.u.).

In the case of “CAATTTCCATGGTTTTCTTAGCATTCTCGTCTCTAGTATTCGGAGTCACCTAGTGCAG”, the binding signal is 9610 fluorescence intensity (a.u.).

Turning to “TCATGCTACTATCATTTTAGCATTAACTGTTACGTTAGAACGGAGTCACCTAGTGCAG”, the binding signal is 8170 fluorescence intensity (a.u.).

As to “CACGTAAACTTCCAACTTTTCTGTTACATTGTTCCAATTTCGGAGTCACCTAGTGCAG”, the binding signal was 9240 fluorescence intensity (a.u.).

With “AACCATCCACCACTCACTTTTATCTACTTTTTTTAATAACCGGAGTCACCTAGTGCAG”, the binding signal is 11000 fluorescence intensity (a.u.).

Turning to “CACATATCATCTCTTTCTCCAGCACTACCCAGCCACACAACGGAGTCACCTAGTGCAG”, the binding signal is 10500 fluorescence intensity (a.u.).

In the case of “GAGAGGTGGGAAGCCAAAGTGGGAGAAGCAAAAATATTCTCGGAGTCACCTAGTGCAG”, the binding signal is 8380 fluorescence intensity (a.u.).

Regarding “CCACCGCCGCCGCCGCTCGCCCCGCGCCCGCGCCGCCGCACGGAGTCACCTAGTGCAG”, the binding signal is 9890 fluorescence intensity (a.u.).

Consider “AAACAAGTCTTACGGCTCACCTGCTTATCACCATTATCTTCGGAGTCACCTAGTGCAG”, for which the binding signal is 9430 fluorescence intensity (a.u.).

Take “TAAATCCGCATTTCTATTTTCACTGCTTTGTTTGATTGTCCGGAGTCACCTAGTGCAG”: the binding signal was 9350 fluorescence intensity (a.u.).

As for “GATACACTCGATCTTTTTTTTGTGTATTTTGGTTTGCTTTCGGAGTCACCTAGTGCAG”, the binding signal is 9820 fluorescence intensity (a.u.).

On to “ACTATTATATTGATCAATTGATTACATAATTCACGTGTCGCGGAGTCACCTAGTGCAG”, for which the binding signal is 13700 fluorescence intensity (a.u.).

In the case of “TTGTTTTTGTGTGTGTGTGTGTTTGTTGTTTATTTTCAGACGGAGTCACCTAGTGCAG”, the binding signal is 9980 fluorescence intensity (a.u.).

As for “GCAGAGCTAACCACCACCATTGTCAGCATTTCTTGGTTTTCGGAGTCACCTAGTGCAG”, the binding signal was 12400 fluorescence intensity (a.u.).

In the case of “GGGTTTAGTTTTTATAGAAACTTTTTCGGGTATTTTTTTTCGGAGTCACCTAGTGCAG”, the binding signal was 11300 fluorescence intensity (a.u.).

As to “TCCATGACTATGCAAAACCATCTATCTCTCTTTAAACATGCGGAGTCACCTAGTGCAG”, the binding signal is 8690 fluorescence intensity (a.u.).

With “TCCTTAAATCAACATCAATTCGGCTTGTTGTTATCATCTACGGAGTCACCTAGTGCAG”, the binding signal is 8840 fluorescence intensity (a.u.).

As to “ATGTTTGACCGTTCGTTTTATTCAAAAAAAACTTTTGTGACGGAGTCACCTAGTGCAG”, the binding signal is 8140 fluorescence intensity (a.u.).

For “AAAAGCATATGGTTTCTGACTTTCTTCTCCATTCCTTTTCCGGAGTCACCTAGTGCAG”, the binding signal is 8510 fluorescence intensity (a.u.).

Turning to “GTAGTGTGGATGCCATTCAAATCTGCCTCCGCCGCCGACGCGGAGTCACCTAGTGCAG”, the binding signal was 8180 fluorescence intensity (a.u.).

Turning to “AGTAGAGTATTTTTTTTTCTTTTTTGATTGATGGTGATAACGGAGTCACCTAGTGCAG”, the binding signal is 8320 fluorescence intensity (a.u.).

As for “TCTCATTTTACACTTTGAATATCTCTCCCTTTTCTTTTGACGGAGTCACCTAGTGCAG”, the binding signal is 8340 fluorescence intensity (a.u.).

On to “ACCACGCCATGAGTTGCATCCATGCATGCTTCTATTCATTCGGAGTCACCTAGTGCAG”, for which the binding signal was 11600 fluorescence intensity (a.u.).

For the sequence “TTTTCTAGGCTGATAGTTCTAGCTGTAGTTTCTTCCTATACGGAGTCACCTAGTGCAG”, the binding signal was 8250 fluorescence intensity (a.u.).

With “GTCGCACAACTTCACCTTCGCCATCCAGCAGGCGCGCACCCGGAGTCACCTAGTGCAG”, the binding signal is 9180 fluorescence intensity (a.u.).

Regarding “GTGCACCGTGGCGGGGCTGAAGGAGCGGGTGCAGGAGGGGCGGAGTCACCTAGTGCAG”, the binding signal was 8680 fluorescence intensity (a.u.).

Turning to “CATCTCCATTCTTTCATCCTCATCTCTAATGGAGAATTTCCGGAGTCACCTAGTGCAG”, the binding signal was 9460 fluorescence intensity (a.u.).

For the sequence “ATCACCACCGCCGCCAACCACTCCTCACCAAGTCAAAGTTCGGAGTCACCTAGTGCAG”, the binding signal is 11200 fluorescence intensity (a.u.).

For “CTGTACCAGTTGTGCGTGGGCCATTTGCGATTTGCTACAACGGAGTCACCTAGTGCAG”, the binding signal was 9350 fluorescence intensity (a.u.).

For “TGCTCTGCCTCCTCCTCGGCTTCTGCTTCGCGTTCGCGGCCGGAGTCACCTAGTGCAG”, the binding signal is 8130 fluorescence intensity (a.u.).

Consider “CCCACATTCTGCCACCCTCCCCTCACACCCCACCCTTTCCCGGAGTCACCTAGTGCAG”, for which the binding signal was 8870 fluorescence intensity (a.u.).

For “TCTACGAGGGTTTTTGCGCTTTTGTTGCTCTCCGCTCCGCCGGAGTCACCTAGTGCAG”, the binding signal was 8160 fluorescence intensity (a.u.).

Turning to “ACCCATGCCTGACCCGATACATTTGTATTAGCTAATTTCGCGGAGTCACCTAGTGCAG”, the binding signal is 10300 fluorescence intensity (a.u.).

As for “TATAAGTTAAGTATAGTTGACCAAATCTCAACTTTTCAGCCGGAGTCACCTAGTGCAG”, the binding signal was 8690 fluorescence intensity (a.u.).

In the case of “GCGTGGTGCATTTCTTTGTTTTTTGAGGTAGCCATGGTCCCGGAGTCACCTAGTGCAG”, the binding signal was 9450 fluorescence intensity (a.u.).

For “GCTGCTTGTTCTTGAACCCCTTTGTCGCCTGGTAGAGCTCCGGAGTCACCTAGTGCAG”, the binding signal was 9390 fluorescence intensity (a.u.).

In the case of “TCTACATCATCGCCGAAGCCGCCGCTTGCCCGTACGCTGCCGGAGTCACCTAGTGCAG”, the binding signal was 8570 fluorescence intensity (a.u.).

“ACCCCGACCACGACCACGCTGGAAACTTCCCAACCCCTAGCGGAGTCACCTAGTGCAG”: the binding signal is 8290 fluorescence intensity (a.u.).

In the case of “AGGAGAGGGGTTTACTCGGTTGAGGATTTTCTTGTTCTCACGGAGTCACCTAGTGCAG”, the binding signal was 8180 fluorescence intensity (a.u.).

Consider “TCGATTTCCTGAATCGAGGGTGCGTTTGGTGGGAAAATTACGGAGTCACCTAGTGCAG”, for which the binding signal is 9260 fluorescence intensity (a.u.).

Consider “CACTCTTTCCTTCCTTACAATTCCAAACTTTACACTTCTACGGAGTCACCTAGTGCAG”, for which the binding signal was 8220 fluorescence intensity (a.u.).
